Measurements: the supplement of paper PMC12578635
Some of the results follow. No stated cut-off is given here; in the data, active = 150% or more and inactive = the rest. Repeats are few or missing, and single values can be far off.

System: Staphylococcus aureus JE2-lux inside RAW 264.7 macrophages
Assay: intracellular bacterial bioluminescence relative to DMSO vehicle; higher = higher intracellular bacterial metabolic activity
Settings: 10 µM; treatment time 4 h; gentamicin 50 µg/ml

Intracellular bacterial bioluminescence, inactive:
COc1ccc2oc(=O)c(C(=O)Oc3ccc(C(C)=O)cc3OC)cc2c1 139%
O=C(c1ccc2c(c1)OCO2)N1CCc2nc(-c3ccccc3)[nH]c(=O)c2C1 104%
Cc1ccccc1OCCn1cnc2ccccc21 79.8%
O=C(CSc1nc(-c2ccc(Cl)cc2)cs1)NNC(=O)c1ccco1 88.8%
C#CCn1/c(=N/C(=O)c2cc(=O)c3ccccc3o2)sc2cc3c(cc21)OCCO3 131%
CCc1cc(=O)[nH]c(Nc2ccc(C)c(Cl)c2)n1 14.7%
CCOc1ccc(NC(=O)c2cnn3c(=O)c(C)c(C)[nH]c23)cc1 98.7%
Cn1c2c(c(=O)n(C)c1=O)C(c1ccc(OCc3ccccc3)cc1)C1=C(CC(C)(C)CC1=O)N2 (stereo not drawn) 93.5%
O=C(NCc1ccccc1Cl)C(=O)NCC(c1ccco1)S(=O)(=O)c1ccccc1 (stereo not drawn) 114%
CCCCN(C)c1cc(C(=O)O)c2cc(NC(=O)Cc3ccc(OC)cc3)ccc2n1 92.9%
Cc1ccc(NC(=O)N2CCCC2C(=O)Nc2cccnc2)cc1 (stereo not drawn) 125%
Cc1ccc2[nH]c3nc(SCC(=O)Nc4cccc(O)c4)nnc3c2c1 107%
COc1ccc(CCNc2ncnc3c2c(-c2ccccc2)cn3-c2ccccc2C)cc1 60.1%
CC(C)Sc1nc2c(c(=O)[nH]1)C(c1ccc(Br)cc1)C1=C(CCCC1=O)N2 (stereo not drawn) 127%
Nc1cc(O)nc(SCc2ccc(C(=O)c3ccccc3)cc2)n1 68.8%
CC(=O)N1c2ccc(NC(=O)C3(C)CC(=O)N=C4C=C(C)C=CN43)cc2CC1C (stereo not drawn) 99.5%
COc1cc(-c2nc(=O)[nH]c3ccc(Cl)cc23)cc(OC)c1OC 108%
O=C1CC(c2ccccc2OC2CCCC2)c2cnn(-c3nc4ccccc4s3)c2N1 (stereo not drawn) 95.1%
COc1ccc2nc(NCCNC(=O)c3ccc(OC)c(OC)c3)c(C#N)cc2c1 128%
CC1CCCCN1S(=O)(=O)c1ccc(C(=O)Nc2sc3c(c2C#N)CCC3)cc1 (stereo not drawn) 110%
Cc1cc2cc3c(N)c(C(=O)Nc4nc(C)c(C)s4)sc3nc2cc1C 92.9%
O=C(CSCc1nc(O)c2nnn(Cc3ccc(F)cc3)c2n1)Nc1ccc2c(c1)OCCO2 119%
Cc1ccc(S(=O)(=O)n2nc(OC(=O)c3ccc(Cl)cc3Cl)cc2N)cc1 113%
COc1ccc(-c2cc(C(=O)NCC(c3ccccc3Cl)N(C)C)no2)cc1 (stereo not drawn) 55.4%
O=C(NC(c1ccccc1)c1ccccc1)c1cnc2n(c1=O)CCS2 59.8%
Cc1c(Cl)ccc2sc(N(Cc3ccccn3)C(=O)c3ccc(S(C)(=O)=O)cc3)nc12 123%
Cc1ccnc(N2CCC(C(=O)NC3CCCCCC3)CC2)n1 69.3%
O=C(COc1ccc(Cl)cc1)N1CCN=C1SCc1ccccc1F 53.5%
O=C1CN(C(=O)c2ccccc2Br)C(c2ccccc2)c2cc(F)ccc2N1 (stereo not drawn) 84.6%
O=C(CC1SC(=O)N(c2ccccc2)C1=O)Nc1ccccc1 (stereo not drawn) 85.7%
CCCN1C(=O)C(C)(C)COc2ccc(NS(=O)(=O)c3ccc4c(c3)CCCC4)cc21 114%
COc1cccc(/C=N/c2cccc3c(=O)[nH][nH]c(=O)c23)c1O 81%
CC(=O)c1c2c3c(c(Cl)ccc3[nH]c1=O)C(=O)c1ccccc1-2 117%
Cn1c(SCC(=O)N2CCCC2)nc2c(-c3ccccc3)csc2c1=O 105%
O=C(CN(Cc1ccc(Cl)cc1)C(=O)c1cccnc1)N1CCNCC1 106%
COCCN(Cc1cc2cc3c(cc2nc1Cl)OCO3)C(=O)NCc1ccccc1 98.7%
N#C/C(C(=O)NCc1ccco1)=C1/SC=C(c2ccccc2)N1c1ccccc1 103%
O=C(CSc1nc2c(c(=O)[nH]1)CN(Cc1ccc(F)cc1)CC2)Nc1ccc(Cl)cc1 68.7%
COC(=O)CCSc1ncnc2scc(-c3ccc(Cl)cc3)c12 71%
NC(=O)C1Cc2ccccc2N1C(=O)CC(c1ccccc1)c1ccccc1 (stereo not drawn) 101%
CCOc1ccc(NCc2ccc(O)c3ncccc23)cc1 104%
Cc1ccc2nc(-c3ccc(NC(=O)C4CC4)cc3)sc2c1 108%
CCCCCNC(=O)c1cc(-c2ccc(Cl)cc2)nc2[nH]nc(-c3ccc(OC)cc3)c12 84.6%
Cc1nc2c(C)cccc2cc1C(=O)NCCS(=O)(=O)NC1CCCCC1 53.8%
O=c1/c(=C/c2ccc(Br)cc2)sc2nc(-c3ccncc3)nn12 92.2%
CCc1nnsc1C(=O)Nc1ccc(S(=O)(=O)N2CCOCC2)cc1 76.9%
O=C1NC(=O)c2cc(NC(=O)c3cc(Cl)sc3Cl)ccc21 114%
NC(=O)c1c(Nc2nc3ccc(F)cc3s2)sc2c1CCCC2 90.8%
O=C(CN1CCc2nc(N3CCOCC3)[nH]c(=O)c2C1)Nc1ccc2c(c1)OCO2 129%
O=C(NC1(CN2CCCC2)CCCCC1)C1OCOc2ccccc21 (stereo not drawn) 107%
CCC(C)NC(=O)c1ccc2c(=O)n(C)c3n[nH]c(=S)n3c2c1 (stereo not drawn) 118%
COc1ccc2cc(CCNC(=O)Cc3cccc4ccccc34)c(=O)[nH]c2c1 59.5%
O=C(O)c1cc(-c2ccc(F)cc2)nc2ccccc12 106%
COc1ccc(N2C(=O)NC3CC2(C)Oc2ccc([N+](=O)[O-])cc23)c(OC)c1 (stereo not drawn) 91.8%
CCc1ccc(NC(=O)Nc2ccccc2OCc2cc(=O)n3ccc(C)cc3n2)cc1 118%
COc1ccc2[nH]c3nc(SCc4nc5ccccc5[nH]4)nnc3c2c1 39.5%
Cc1ccc(C)c(N2CCN(S(=O)(=O)c3c(C)sc(C)c3-c3cc(C(F)(F)F)on3)CC2)c1 87.2%
COc1ccc(C(=O)Nc2cccc(-c3ccc4nncn4n3)c2)c(OC)c1 68.3%

Some of these compounds in order of count of non-hydrogen atoms, rising:
Intracellular bacterial bioluminescence, inactive:
Cc1ccc2nc(-c3ccc(NC(=O)C4CC4)cc3)sc2c1 108%
O=C(NC1(CN2CCCC2)CCCCC1)C1OCOc2ccccc21 (stereo not drawn) 107%
COc1ccc2nc(NCCNC(=O)c3ccc(OC)c(OC)c3)c(C#N)cc2c1 128%
